{
  "source": "PubChem BioAssay AID328",
  "about": "(DTP/NCI, 2004)",
  "test_system": "BDF1 mice, P388 leukemia ip, median survival T/C",
  "assay": "NCI In Vivo Anticancer Drug Screen. Data for tumor model P388 Leukemia (intraperitoneal) in B6D2F1 (BDF1) mice",
  "details": "T/C endpoint: median survival time, higher T/C = longer survival",
  "experimental": "The antitumor activity of compounds was measured in mice bearing transplantable tumors. Survival or tumor size were measured and the results are expressed as the measurement made in the treated group (T) divided by the measurement made in the vehicle treated control group (C). The tumor model used in this assay is P388 Leukemia (intraperitoneal) in B6D2F1 (BDF1) mice",
  "key": {"[1]": {"details": "dose: 200.0 mg/kg/injection, schedule: Q01DX005 (ip), vehicle: Klucel (hydroxypropylcellulose) (HPC)"}, "[2]": {"details": "dose: 200.0 mg/kg/injection, schedule: Q01DX009 (ip), vehicle: Klucel (hydroxypropylcellulose) (HPC)"}, "[3]": {"details": "dose: 400.0 mg/kg/injection, schedule: Q01DX005 (ip), vehicle: Klucel (hydroxypropylcellulose) (HPC)"}},
  "note": "The list shows only some results of the screen, not a fair sample: it gathers tests that were run many times, whatever their T/C, doses with no T/C, and many T/C values between a quarter and a half above the control. Other doses and runs of a compound stand elsewhere. T/C: endpoint of the treated group in % of that of the vehicle group. Some doses have a count of surviving animals in place of a T/C: the source files T/C as zero there, which appears to mark a toxic dose or a test without result, not a measured value. Some survivor counts are full or nearly so, which does not show that the dose was tolerated: the source hardly ever lists a survival T/C far under the control, and the zero likely stands for such cases as well. Counts of survivors are from the toxicity check (mostly the fifth day) where no day follows; animals may have died later. Schedule codes are those of the source, read here as Q, the interval in days (D) or hours (H), X, the number of doses. Some entries were tested several times; the values are given in rising order. Additions like (4×) count equal records among those shown. Where survival is the endpoint, the PubChem record calls one and a half times the control and up active, and a quarter to a half above the control has no call in these data; cut-offs in other NCI protocols can differ. Some T/C values carry the count of animals alive at the toxicity check (mostly the fifth day); where none is given, no animal had died by that day.",
  "data": [
    {"smiles": "CN(Cc1cnc2nc(N)nc(N)c2n1)c1c(Cl)cc(C(=O)NC(CCC(=O)O)C(=O)O)cc1Cl", "note": "(centres undefined)", "values": [
      {"measurement": "T/C", "setting": "dose: 100.0 mg/kg/injection, schedule: Q04DX003 (ip), vehicle: Klucel (hydroxypropylcellulose) (HPC), evaluated on day 35", "result": "167 and 196 % of control"},
      {"measurement": "T/C", "setting": "dose: 200.0 mg/kg/injection, schedule: Q01DX001 (ip), vehicle: Klucel (hydroxypropylcellulose) (HPC), evaluated on day 30", "result": "106, 117 (2×), 119, 122, 125, 139, 142, 143, 146, 150 (2×), 157, 158 (2×), 160, 163 (3×), 165, 168, 173, 176, 182, 184, 189, 191, 196, 197 % of control"},
      {"measurement": "T/C", "setting": "dose: 200.0 mg/kg/injection, schedule: Q01DX001 (ip), vehicle: Klucel (hydroxypropylcellulose) (HPC), evaluated on day 35", "result": "125 and 155 % of control"},
      {"measurement": "survivor count", "setting": "dose: 200.0 mg/kg/injection, schedule: Q01DX001 (ip), vehicle: Klucel (hydroxypropylcellulose) (HPC)", "result": "3 of 3"},
      {"measurement": "T/C", "setting": "[1]", "result": "100, 132, 172, 180, 190, 191, 195 (2×), 203, 223, 227, 232, 236, 259 % of control"},
      {"measurement": "survivor count", "setting": "[1]", "result": "0 of 6, 1 of 3, 2 of 6, 2 of 3, 5 of 6, 3 of 3, 6 of 6 (2×)"},
      {"measurement": "T/C", "setting": "[2]", "result": "90, 93 (2×), 100, 169, 245 % of control"},
      {"measurement": "survivor count", "setting": "[2]", "result": "1 of 3, 3 of 6, 2 of 3, 4 of 6, 5 of 6, 3 of 3, 6 of 6"},
      {"measurement": "T/C", "setting": "dose: 200.0 mg/kg/injection, schedule: Q04DX002 (ip), vehicle: Klucel (hydroxypropylcellulose) (HPC), evaluated on day 30", "result": "124, 132, 145, 148, 157, 158, 159, 163, 165, 174, 175, 177 (3×), 178 (2×), 182, 183, 189, 193 (2×), 203 (2×), 204, 205, 211 (2×), 216, 221, 225, 231, 247 % of control (2×)"},
      {"measurement": "T/C", "setting": "dose: 200.0 mg/kg/injection, schedule: Q04DX002 (ip), vehicle: Klucel (hydroxypropylcellulose) (HPC), evaluated on day 35", "result": "198 % of control"},
      {"measurement": "T/C", "setting": "dose: 200.0 mg/kg/injection, schedule: Q04DX003 (ip), vehicle: Klucel (hydroxypropylcellulose) (HPC), evaluated on day 30", "result": "140 (2×), 146, 150 (2×), 169, 171, 182, 185, 186, 189 [5 of 6 alive], 190, 197, 200, 204, 205, 210 (2×), 211, 223, 226 (2×), 229, 232 (2×), 238, 247, 248, 250, 252, 256, 258, 263, 275 % of control"},
      {"measurement": "T/C", "setting": "dose: 200.0 mg/kg/injection, schedule: Q04DX003 (ip), vehicle: Klucel (hydroxypropylcellulose) (HPC), evaluated on day 35", "result": "232 and 245 % of control [2 of 3 alive]"},
      {"measurement": "T/C", "setting": "dose: 400.0 mg/kg/injection, schedule: Q01DX001 (ip), vehicle: Klucel (hydroxypropylcellulose) (HPC), evaluated on day 30", "result": "114, 115, 118, 122, 143, 152, 155 (2×), 156, 157, 158, 165, 169, 176, 178, 180, 185, 187 (2×), 190, 197, 198, 199, 200, 201 (2×), 206, 213, 252 % of control"},
      {"measurement": "T/C", "setting": "dose: 400.0 mg/kg/injection, schedule: Q01DX001 (ip), vehicle: Klucel (hydroxypropylcellulose) (HPC), evaluated on day 35", "result": "133 [2 of 3 alive] and 169 % of control"},
      {"measurement": "survivor count", "setting": "dose: 400.0 mg/kg/injection, schedule: Q01DX001 (ip), vehicle: Klucel (hydroxypropylcellulose) (HPC)", "result": "3 of 3"},
      {"measurement": "T/C", "setting": "[3]", "result": "250 % of control"},
      {"measurement": "survivor count", "setting": "[3]", "result": "0 of 3, 1 of 6, 1 of 3, 2 of 6, 2 of 3, 4 of 6 (2×), 5 of 6, 3 of 3, 6 of 6"},
      {"measurement": "survivor count", "setting": "dose: 400.0 mg/kg/injection, schedule: Q01DX009 (ip), vehicle: Klucel (hydroxypropylcellulose) (HPC)", "result": "0 of 3, 1 of 3, 2 of 6, 3 of 6, 2 of 3, 4 of 6, 5 of 6, 3 of 3, 6 of 6"},
      {"measurement": "survivor count", "setting": "dose: 400.0 mg/kg/injection, schedule: Q01DX009 (ip), vehicle: saline with Tween-80", "result": "5 of 6"},
      {"measurement": "T/C", "setting": "dose: 400.0 mg/kg/injection, schedule: Q04DX002 (ip), vehicle: Klucel (hydroxypropylcellulose) (HPC), evaluated on day 30", "result": "89, 148 [5 of 6 alive], 153 (2×), 162, 170 (2×), 174, 178, 180, 182, 184, 202, 206 [2 of 2 alive], 210, 212, 213, 223, 224, 228, 233, 238, 239, 241, 243, 253, 259 [5 of 6 alive], 270, 275, 276, 281, 284, 306 % of control"},
      {"measurement": "T/C", "setting": "dose: 400.0 mg/kg/injection, schedule: Q04DX002 (ip), vehicle: Klucel (hydroxypropylcellulose) (HPC), evaluated on day 35", "result": "299 % of control"},
      {"measurement": "T/C", "setting": "dose: 400.0 mg/kg/injection, schedule: Q04DX003 (ip), vehicle: Klucel (hydroxypropylcellulose) (HPC), evaluated on day 30", "result": "123, 139 (2×), 144, 148, 157 (2×), 162, 176, 186, 204, 208, 208 [5 of 6 alive], 210, 215, 226, 228 (2×), 229 (2×), 230, 231, 247, 251, 252, 254 (2×), 260, 265, 267, 272, 276 [5 of 6 alive], 282 % of control"},
      {"measurement": "T/C", "setting": "dose: 400.0 mg/kg/injection, schedule: Q04DX003 (ip), vehicle: Klucel (hydroxypropylcellulose) (HPC), evaluated on day 35", "result": "309 and 312 % of control"},
      {"measurement": "survivor count", "setting": "dose: 400.0 mg/kg/injection, schedule: Q04DX003 (ip), vehicle: Klucel (hydroxypropylcellulose) (HPC)", "result": "2 of 3"}
    ]}
  ]
}
